Reference: the supplement of paper PMC10849652
The list shows a part of the results.

Protein sequences, listed by entry. Tags and fused reporters are not part of them. Lines headed by an entry give the natural chain unless they say otherwise; changes in a name come on top.
UniProt O75845: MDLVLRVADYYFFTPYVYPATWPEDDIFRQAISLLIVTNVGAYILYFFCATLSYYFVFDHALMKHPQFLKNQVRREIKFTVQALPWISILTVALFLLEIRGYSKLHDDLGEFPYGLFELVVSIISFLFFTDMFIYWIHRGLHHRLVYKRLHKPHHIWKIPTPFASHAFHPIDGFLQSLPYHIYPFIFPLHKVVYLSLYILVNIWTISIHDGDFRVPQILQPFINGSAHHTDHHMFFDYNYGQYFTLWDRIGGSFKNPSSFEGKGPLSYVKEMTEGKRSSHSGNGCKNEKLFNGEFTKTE
UniProt Q99643: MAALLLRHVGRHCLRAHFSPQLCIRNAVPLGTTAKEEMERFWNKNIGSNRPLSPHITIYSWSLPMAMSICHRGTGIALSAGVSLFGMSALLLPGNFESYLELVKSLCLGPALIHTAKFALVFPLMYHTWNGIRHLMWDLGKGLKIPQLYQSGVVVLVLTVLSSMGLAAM
UniProt Q15404: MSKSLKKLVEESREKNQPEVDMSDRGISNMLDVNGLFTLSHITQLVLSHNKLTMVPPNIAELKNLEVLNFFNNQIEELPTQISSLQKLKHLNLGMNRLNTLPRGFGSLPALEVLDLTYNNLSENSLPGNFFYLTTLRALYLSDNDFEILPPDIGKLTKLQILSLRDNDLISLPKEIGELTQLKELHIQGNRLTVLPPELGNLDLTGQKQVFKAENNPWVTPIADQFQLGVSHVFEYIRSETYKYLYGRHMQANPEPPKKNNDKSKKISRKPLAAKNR
UniProt Q8IZE3: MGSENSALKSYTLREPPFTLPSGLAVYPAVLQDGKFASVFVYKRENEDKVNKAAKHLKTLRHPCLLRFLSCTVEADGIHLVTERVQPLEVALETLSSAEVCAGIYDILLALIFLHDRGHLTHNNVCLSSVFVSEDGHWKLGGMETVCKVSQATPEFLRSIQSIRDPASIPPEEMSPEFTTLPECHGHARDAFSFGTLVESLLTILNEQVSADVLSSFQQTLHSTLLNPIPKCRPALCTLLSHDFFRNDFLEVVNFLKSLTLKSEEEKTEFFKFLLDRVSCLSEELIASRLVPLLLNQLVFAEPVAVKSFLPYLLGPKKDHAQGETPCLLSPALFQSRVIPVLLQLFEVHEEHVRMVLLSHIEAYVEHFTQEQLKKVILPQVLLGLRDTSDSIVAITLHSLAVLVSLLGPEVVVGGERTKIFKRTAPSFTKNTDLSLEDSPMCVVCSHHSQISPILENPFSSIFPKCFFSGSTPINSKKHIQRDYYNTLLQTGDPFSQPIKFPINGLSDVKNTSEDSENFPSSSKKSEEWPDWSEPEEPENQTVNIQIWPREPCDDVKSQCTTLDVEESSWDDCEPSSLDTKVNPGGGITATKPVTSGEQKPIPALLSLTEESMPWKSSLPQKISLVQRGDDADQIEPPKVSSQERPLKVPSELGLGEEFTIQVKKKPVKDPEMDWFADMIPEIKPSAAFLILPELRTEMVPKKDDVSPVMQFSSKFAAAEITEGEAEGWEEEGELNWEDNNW
UniProt O75556: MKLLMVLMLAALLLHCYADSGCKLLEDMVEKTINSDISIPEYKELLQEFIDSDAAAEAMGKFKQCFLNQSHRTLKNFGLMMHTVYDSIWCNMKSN
UniProt Q15436: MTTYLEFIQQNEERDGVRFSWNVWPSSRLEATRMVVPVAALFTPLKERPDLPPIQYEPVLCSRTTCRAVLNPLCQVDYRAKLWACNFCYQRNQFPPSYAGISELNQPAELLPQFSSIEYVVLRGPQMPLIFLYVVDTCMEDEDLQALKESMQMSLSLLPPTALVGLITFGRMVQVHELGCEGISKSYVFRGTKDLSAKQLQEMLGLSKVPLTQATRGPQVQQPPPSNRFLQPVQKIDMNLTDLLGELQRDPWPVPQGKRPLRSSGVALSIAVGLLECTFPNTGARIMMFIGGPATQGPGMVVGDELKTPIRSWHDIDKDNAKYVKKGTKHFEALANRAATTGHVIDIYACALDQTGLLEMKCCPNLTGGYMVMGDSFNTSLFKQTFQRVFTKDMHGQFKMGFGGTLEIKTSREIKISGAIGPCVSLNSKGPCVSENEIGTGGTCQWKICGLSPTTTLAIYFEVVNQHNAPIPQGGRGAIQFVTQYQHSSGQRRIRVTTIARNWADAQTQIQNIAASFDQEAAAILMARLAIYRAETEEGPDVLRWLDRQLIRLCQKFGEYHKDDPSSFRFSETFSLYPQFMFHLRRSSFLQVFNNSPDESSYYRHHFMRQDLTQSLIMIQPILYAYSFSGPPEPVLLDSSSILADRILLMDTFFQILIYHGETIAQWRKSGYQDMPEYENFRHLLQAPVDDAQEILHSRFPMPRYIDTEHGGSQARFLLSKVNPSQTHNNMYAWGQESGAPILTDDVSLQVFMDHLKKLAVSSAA
UniProt O95969: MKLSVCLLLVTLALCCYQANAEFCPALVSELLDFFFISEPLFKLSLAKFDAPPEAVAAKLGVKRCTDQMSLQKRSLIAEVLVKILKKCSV
UniProt O00767: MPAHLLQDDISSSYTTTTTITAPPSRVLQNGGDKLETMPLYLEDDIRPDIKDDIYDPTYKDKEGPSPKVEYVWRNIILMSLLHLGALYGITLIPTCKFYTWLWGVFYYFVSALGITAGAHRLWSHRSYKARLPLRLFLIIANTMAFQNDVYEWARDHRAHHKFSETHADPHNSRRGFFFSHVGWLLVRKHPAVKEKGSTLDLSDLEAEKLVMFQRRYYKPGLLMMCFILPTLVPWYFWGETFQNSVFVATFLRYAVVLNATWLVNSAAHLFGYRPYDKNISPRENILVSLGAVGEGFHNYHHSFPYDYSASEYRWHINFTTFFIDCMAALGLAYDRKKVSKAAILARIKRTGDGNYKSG

Assays:
Experiment in all cases: log2 fold change, soluble protein after heating vs DMSO (PISA); higher = thermal stabilisation; K562 cells, 10 uM, 30 min; active = over 0.2 and 3.5 SD of the protein, either way, in both replicates (recomputed)
[1] = compound: C1=CC=C(C=C1)[C@H](COC2=CC3=C(C=C2)NC(=O)N3)NC(=O)C4=CC=CN(C4=O)CC5=CC(=C(C=C5)F)F
In short: (§1)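 Thermal stability values are relative to control samples and come from duplicates. They are expressed as log2 fold changes. For measurement, K562 cells (2×10^6 cells/mL) received 10 μM compound for 30 min, and aliquots were heated for 3 min over 48°C-58°C, pooled, and extracted at 4°C in PBS with 0.5% NP-40. Soluble protein, the supernatant after 21,000xg for 90 min, was quantified by TMTpro 16plex LC-MS/MS with equalised channel sums.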

[2] = compound: CC1=C(SC2=C1C(=N[C@H](C3=NN=C(N32)C)CC(=O)N)C4=CC=C(C=C4)Cl)C
In short: as §1

[3] = compound: CC1=C2C(=CC=C1)N=C(N(C2=O)C3=CC=CC=C3C)CN4C=NC5=C(N=CN=C54)N
In short: as §1

[4] = compound: Cc1sc2c(c1C)C(c1ccc(Cl)cc1)=N[C@@H](CC(=O)OC(C)(C)C)c1nnc(C)n1-2
In short: as §1

[5] = compound: c1ccc([C@@H]2C[C@H]2NC2CCNCC2)cc1
In short: as §1

Measured: log2 fold change

SC5D (UniProt O75845)
inactive: [1] 0.033 | [2] 0.004 | [3] -0.023 | [4] -0.017 | [5] 0.045

SDHC (UniProt Q99643)
inactive: [1] -0.052 | [2] 0.004 | [3] -0.056 | [4] -0.018 | [5] 0.163

RSU1 (UniProt Q15404)
inactive: [1] 0.015 | [2] 0.03 | [3] 0.044 | [4] -0.026 | [5] 0.013

SCYL3 isoform 2 (UniProt Q8IZE3)
inactive: [1] -0.014 | [2] -0.006 | [3] 0.055 | [4] 0.041 | [5] -0.113

SCGB2A1 (UniProt O75556)
inactive: [1] -0.306

SEC23A (UniProt Q15436)
inactive: [1] 0.006 | [2] 0.052 | [3] 0.078 | [4] 0.027 | [5] 0.075

SCGB1D2 (UniProt O95969)
inactive: [1] -0.362 | [2] -0.039 | [3] -0.115 | [4] -0.414 | [5] -0.073

SCD (UniProt O00767)
inactive: [1] 0.011 | [2] -0.019 | [3] 0.012 | [4] 0.054 | [5] 0.027

RSL1D1 (UniProt O76021)
inactive: [1] 0.18 | [2] -0.349 | [3] -0.241 | [4] 0.178 | [5] 0.031
